Results as given in the supplement of paper PMC10849652.
This is one part of the list.

Protein sequences, listed by entry. Tags and fused reporters are not part of them. Lines headed by an entry give the natural chain unless they say otherwise; changes in a name come on top.
UniProt P84157: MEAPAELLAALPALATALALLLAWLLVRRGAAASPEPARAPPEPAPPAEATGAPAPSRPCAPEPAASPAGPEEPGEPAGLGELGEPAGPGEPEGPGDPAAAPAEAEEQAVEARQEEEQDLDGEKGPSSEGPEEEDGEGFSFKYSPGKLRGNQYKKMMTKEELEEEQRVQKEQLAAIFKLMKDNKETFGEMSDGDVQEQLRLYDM
UniProt P58546, whole entry, looked up: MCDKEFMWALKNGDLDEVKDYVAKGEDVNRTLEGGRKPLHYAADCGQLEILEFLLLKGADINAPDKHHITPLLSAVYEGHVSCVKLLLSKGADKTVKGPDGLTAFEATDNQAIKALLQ
UniProt P12829: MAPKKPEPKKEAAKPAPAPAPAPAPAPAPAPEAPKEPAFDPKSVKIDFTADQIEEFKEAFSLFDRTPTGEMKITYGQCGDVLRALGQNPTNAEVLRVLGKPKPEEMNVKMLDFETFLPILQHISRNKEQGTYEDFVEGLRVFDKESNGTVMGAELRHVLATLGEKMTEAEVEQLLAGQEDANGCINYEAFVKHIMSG
UniProt P82909: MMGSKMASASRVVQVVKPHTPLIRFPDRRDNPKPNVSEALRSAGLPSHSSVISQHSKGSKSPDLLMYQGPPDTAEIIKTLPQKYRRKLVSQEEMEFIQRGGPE
UniProt P11586, whole entry, looked up: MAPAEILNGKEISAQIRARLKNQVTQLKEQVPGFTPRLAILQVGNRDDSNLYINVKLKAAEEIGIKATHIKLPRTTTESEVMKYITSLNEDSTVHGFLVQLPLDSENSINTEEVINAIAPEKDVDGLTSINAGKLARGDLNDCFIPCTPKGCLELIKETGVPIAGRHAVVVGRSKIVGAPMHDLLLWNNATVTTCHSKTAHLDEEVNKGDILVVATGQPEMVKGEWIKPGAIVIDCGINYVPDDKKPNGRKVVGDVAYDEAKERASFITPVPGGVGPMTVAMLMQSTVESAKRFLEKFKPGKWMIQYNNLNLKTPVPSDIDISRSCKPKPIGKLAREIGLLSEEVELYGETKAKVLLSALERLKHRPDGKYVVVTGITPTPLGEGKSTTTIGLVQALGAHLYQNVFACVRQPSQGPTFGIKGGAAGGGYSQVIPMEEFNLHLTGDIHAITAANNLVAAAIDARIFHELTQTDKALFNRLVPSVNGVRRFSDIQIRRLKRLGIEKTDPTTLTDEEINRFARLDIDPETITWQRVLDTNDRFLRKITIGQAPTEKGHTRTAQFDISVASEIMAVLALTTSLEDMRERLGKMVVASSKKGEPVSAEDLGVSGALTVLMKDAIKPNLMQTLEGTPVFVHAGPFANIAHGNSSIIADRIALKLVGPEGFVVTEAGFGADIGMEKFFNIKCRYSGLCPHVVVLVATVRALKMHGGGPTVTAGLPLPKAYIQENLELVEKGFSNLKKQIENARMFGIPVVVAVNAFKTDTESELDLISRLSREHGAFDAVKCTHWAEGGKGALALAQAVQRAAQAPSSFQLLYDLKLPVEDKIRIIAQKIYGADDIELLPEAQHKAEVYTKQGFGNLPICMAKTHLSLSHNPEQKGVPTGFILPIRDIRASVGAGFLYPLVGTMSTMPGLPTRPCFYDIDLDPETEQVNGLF
UniProt Q92614: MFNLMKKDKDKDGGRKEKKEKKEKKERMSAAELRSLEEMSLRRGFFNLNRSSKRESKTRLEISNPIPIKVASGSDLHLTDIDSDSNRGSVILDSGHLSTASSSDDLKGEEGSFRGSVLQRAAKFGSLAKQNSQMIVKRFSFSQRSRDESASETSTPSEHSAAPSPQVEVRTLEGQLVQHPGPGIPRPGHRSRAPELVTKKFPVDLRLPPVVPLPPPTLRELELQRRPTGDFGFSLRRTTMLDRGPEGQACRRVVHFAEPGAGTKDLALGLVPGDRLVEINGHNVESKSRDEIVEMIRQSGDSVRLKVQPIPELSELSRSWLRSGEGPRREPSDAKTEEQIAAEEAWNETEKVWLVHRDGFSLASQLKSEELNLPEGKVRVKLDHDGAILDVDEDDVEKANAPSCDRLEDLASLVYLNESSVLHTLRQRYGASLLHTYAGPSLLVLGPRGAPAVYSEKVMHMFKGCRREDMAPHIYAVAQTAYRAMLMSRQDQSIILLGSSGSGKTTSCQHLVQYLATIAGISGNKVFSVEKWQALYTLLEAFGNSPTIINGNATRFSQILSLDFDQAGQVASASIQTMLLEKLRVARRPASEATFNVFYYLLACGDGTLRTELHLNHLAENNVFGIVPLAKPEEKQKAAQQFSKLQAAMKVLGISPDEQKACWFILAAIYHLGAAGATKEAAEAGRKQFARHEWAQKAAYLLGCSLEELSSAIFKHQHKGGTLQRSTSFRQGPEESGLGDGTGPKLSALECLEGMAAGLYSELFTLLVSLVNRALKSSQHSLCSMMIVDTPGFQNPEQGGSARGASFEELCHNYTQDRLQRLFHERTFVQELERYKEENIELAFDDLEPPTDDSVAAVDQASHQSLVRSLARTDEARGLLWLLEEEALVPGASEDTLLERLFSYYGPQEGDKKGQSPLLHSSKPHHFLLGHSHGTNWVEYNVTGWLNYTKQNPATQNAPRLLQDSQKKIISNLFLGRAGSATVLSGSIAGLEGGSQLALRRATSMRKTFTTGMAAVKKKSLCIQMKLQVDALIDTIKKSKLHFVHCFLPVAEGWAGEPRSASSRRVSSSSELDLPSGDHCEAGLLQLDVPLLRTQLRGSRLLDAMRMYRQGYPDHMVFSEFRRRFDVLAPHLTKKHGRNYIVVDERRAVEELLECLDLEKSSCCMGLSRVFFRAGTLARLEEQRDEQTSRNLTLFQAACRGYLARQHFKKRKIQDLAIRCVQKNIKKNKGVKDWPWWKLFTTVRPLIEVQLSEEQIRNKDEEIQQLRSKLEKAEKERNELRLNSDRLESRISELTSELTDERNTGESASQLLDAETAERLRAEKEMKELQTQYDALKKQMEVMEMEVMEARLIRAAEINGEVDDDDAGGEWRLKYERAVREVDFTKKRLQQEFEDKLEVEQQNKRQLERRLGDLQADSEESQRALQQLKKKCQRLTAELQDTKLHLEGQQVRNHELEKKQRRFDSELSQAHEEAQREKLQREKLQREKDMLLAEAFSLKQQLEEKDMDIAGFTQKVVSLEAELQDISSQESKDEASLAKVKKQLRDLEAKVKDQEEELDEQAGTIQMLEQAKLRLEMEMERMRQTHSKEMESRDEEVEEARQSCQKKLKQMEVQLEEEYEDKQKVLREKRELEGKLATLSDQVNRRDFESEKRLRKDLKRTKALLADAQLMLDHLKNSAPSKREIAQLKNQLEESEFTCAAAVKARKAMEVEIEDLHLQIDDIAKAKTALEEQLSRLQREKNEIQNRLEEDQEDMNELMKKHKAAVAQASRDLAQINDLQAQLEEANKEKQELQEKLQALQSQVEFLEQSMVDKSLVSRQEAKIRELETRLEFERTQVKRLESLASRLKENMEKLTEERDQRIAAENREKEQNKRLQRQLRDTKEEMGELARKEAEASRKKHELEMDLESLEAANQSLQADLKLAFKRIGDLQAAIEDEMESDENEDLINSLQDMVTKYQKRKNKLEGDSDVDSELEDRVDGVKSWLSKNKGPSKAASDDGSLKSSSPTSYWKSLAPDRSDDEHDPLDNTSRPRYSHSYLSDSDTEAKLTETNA
UniProt P03915, whole entry, looked up: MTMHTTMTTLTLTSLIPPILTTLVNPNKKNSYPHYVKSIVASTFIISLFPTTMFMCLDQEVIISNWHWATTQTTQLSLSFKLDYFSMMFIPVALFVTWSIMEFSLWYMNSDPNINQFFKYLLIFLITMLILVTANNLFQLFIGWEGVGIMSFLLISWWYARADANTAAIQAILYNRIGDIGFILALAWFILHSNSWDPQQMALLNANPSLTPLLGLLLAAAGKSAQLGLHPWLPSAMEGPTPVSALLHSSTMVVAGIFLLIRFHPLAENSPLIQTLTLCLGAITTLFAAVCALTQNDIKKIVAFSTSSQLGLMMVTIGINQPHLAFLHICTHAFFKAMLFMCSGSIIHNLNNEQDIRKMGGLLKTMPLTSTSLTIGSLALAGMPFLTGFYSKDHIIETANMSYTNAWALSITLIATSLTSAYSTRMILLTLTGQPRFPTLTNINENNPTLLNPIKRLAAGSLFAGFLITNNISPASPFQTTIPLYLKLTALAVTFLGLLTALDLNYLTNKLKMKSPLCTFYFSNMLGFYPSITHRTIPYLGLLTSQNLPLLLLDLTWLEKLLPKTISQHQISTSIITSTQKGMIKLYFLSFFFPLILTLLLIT
UniProt P35579, whole entry, looked up: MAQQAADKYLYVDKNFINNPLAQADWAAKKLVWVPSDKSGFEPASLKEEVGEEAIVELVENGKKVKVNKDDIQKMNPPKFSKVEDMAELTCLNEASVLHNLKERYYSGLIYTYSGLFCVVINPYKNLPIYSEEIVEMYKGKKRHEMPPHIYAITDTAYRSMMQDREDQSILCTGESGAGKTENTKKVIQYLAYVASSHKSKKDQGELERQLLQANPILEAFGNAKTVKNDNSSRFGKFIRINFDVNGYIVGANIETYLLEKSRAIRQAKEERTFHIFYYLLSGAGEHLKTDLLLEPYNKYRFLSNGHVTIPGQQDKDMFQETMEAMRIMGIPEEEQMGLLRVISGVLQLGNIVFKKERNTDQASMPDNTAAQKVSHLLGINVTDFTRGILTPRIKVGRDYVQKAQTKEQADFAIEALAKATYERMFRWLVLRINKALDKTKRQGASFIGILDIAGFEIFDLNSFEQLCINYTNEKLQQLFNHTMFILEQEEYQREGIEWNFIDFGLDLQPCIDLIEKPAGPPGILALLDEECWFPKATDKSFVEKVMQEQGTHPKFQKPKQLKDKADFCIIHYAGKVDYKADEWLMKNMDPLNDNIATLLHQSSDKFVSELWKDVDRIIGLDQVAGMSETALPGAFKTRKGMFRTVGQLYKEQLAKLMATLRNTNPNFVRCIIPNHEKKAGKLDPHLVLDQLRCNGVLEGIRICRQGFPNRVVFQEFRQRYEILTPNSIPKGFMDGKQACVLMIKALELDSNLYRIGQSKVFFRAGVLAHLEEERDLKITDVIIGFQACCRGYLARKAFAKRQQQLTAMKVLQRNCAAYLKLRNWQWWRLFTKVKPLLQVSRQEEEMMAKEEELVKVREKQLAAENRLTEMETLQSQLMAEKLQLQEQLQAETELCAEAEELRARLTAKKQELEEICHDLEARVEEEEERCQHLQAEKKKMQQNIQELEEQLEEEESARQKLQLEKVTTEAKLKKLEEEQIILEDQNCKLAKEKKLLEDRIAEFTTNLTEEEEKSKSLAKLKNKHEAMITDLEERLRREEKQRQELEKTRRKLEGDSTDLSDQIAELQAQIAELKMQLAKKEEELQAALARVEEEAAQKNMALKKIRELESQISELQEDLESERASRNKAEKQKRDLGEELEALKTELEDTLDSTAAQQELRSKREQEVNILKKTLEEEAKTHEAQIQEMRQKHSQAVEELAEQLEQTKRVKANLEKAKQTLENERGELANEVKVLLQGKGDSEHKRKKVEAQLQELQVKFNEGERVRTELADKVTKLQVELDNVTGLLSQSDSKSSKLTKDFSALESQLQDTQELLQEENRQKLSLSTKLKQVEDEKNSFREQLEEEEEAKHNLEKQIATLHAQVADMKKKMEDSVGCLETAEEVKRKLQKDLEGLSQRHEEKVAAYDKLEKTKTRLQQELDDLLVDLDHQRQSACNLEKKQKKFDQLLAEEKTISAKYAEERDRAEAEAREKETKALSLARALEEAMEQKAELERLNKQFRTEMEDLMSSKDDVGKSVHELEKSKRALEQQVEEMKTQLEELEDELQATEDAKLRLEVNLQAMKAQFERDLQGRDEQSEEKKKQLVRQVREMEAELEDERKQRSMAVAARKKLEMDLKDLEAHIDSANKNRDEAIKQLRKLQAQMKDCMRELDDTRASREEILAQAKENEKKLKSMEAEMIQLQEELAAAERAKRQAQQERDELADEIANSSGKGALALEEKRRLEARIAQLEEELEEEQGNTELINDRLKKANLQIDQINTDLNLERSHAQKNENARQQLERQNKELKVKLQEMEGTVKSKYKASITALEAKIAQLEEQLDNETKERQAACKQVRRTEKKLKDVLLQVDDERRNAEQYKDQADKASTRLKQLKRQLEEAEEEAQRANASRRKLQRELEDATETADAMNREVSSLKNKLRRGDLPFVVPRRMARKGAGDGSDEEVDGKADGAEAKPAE

Tests used:
Experiment in all cases: log2 fold change, soluble protein after heating vs DMSO (PISA); higher = thermal stabilisation; K562 cells, 10 uM, 30 min; active = over 0.2 and 3.5 SD of the protein, either way, in both replicates (recomputed)
bafetinib = compound: Cc1ccc(NC(=O)c2ccc(CN3CC[C@H](N(C)C)C3)c(C(F)(F)F)c2)cc1Nc1nccc(-c2cncnc2)n1 [bafetinib]
In short: (§1)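 Values are thermal stability changes relative to control samples and are taken from duplicates. They are stated as log2 fold changes. Before quantification by TMTpro 16plex LC-MS/MS with equalised channel sums, K562 cells at 2×10^6 cells/mL were treated with 10 μM compound for 30 min, heated in aliquots for 3 min across 48°C-58°C, pooled, extracted in PBS with 0.5% NP-40 at 4°C, and centrifuged at 21,000xg for 90 min to give the soluble supernatant.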

[1] = compound: Cc1cccc(CC(=O)N2CCc3c2ccc(-c2cn(C)c4ncnc(N)c24)c3F)n1
In short: as §1

nilotinib = compound: Cc1cn(-c2cc(NC(=O)c3ccc(C)c(Nc4nccc(-c5cccnc5)n4)c3)cc(C(F)(F)F)c2)cn1 [nilotinib]
In short: as §1

[2] = compound: Cc1nc(Nc2n[nH]c3c2CN(C(=O)N[C@H](CN(C)C)c2ccccc2)C3(C)C)c2sccc2n1
In short: as §1

dasatinib = compound: Cc1nc(Nc2ncc(C(=O)Nc3c(C)cccc3Cl)s2)cc(N2CCN(CCO)CC2)n1 [dasatinib]
In short: as §1

[3] = compound: Cc1ncc(-c2ccnc(Nc3ccc(S(C)(=O)=O)cc3)n2)n1C(C)C
In short: as §1

[4] = compound: Cn1cc(-c2ccc3c(c2)CCN3C(=O)Cc2cccc(C(F)(F)F)c2)c2c(N)ncnc21
In short: as §1

[5] = compound: Cn1cc(-c2ccc3nnc(C(F)(F)c4ccc5ncccc5c4)n3n2)cn1
In short: as §1

tipifarnib = compound: Cn1cncc1[C@@](N)(c1ccc(Cl)cc1)c1ccc2c(c1)c(-c1cccc(Cl)c1)cc(=O)n2C [tipifarnib]
In short: as §1

mubritinib = compound: FC(F)(F)c1ccc(/C=C/c2nc(COc3ccc(CCCCn4ccnn4)cc3)co2)cc1 [mubritinib]
In short: as §1

[6] = compound: NC(=O)Nc1cc(-c2cccc(F)c2)sc1C(=O)N[C@H]1CCCNC1
In short: as §1

[7] = compound: NC(=O)c1cnc(N[C@@H]2CCCC[C@@H]2N)nc1Nc1cccc(-n2nccn2)c1
In short: as §1

[8] = compound: NC1(c2ccc(-c3nc4ccn5c(=O)[nH]nc5c4cc3-c3ccccc3)cc2)CCC1
In short: as §1

[9] = compound: NCC(=O)Nc1ccc(-n2nc(C(F)(F)F)cc2-c2ccc3c(ccc4ccccc43)c2)cc1
In short: as §1

entinostat = compound: Nc1ccccc1NC(=O)c1ccc(CNC(=O)OCc2cccnc2)cc1 [entinostat]
In short: as §1

vorinostat = compound: O=C(CCCCCCC(=O)Nc1ccccc1)NO [vorinostat]
In short: as §1

citarinostat = compound: O=C(CCCCCCNC(=O)c1cnc(N(c2ccccc2)c2ccccc2Cl)nc1)NO [citarinostat]
In short: as §1

silmitasertib = compound: O=C(O)c1ccc2c(c1)nc(Nc1cccc(Cl)c1)c1ccncc12 [silmitasertib]
In short: as §1

[10] = compound: O=C1NC(=O)C(c2cnc3ccccn23)=C1c1cn2c3c(cc(F)cc13)CN(C(=O)N1CCCCC1)CC2
In short: as §1

[11] = compound: c1cc(OCCN2CCCCC2)cc(-c2n[nH]c3ccc(-c4nnc[nH]4)cc23)c1
In short: as §1

| Target | log2 fold change (bafetinib) | log2 fold change [1] | log2 fold change (nilotinib) | log2 fold change [2] | log2 fold change (dasatinib) | log2 fold change [3] | log2 fold change [4] | log2 fold change [5] | log2 fold change (tipifarnib) | log2 fold change (mubritinib) | log2 fold change [6] | log2 fold change [7] | log2 fold change [8] | log2 fold change [9] | log2 fold change (entinostat) | log2 fold change (vorinostat) | log2 fold change (citarinostat) | log2 fold change (silmitasertib) | log2 fold change [10] | log2 fold change [11] |
| --- | --- | --- | --- | --- | --- | --- | --- | --- | --- | --- | --- | --- | --- | --- | --- | --- | --- | --- | --- | --- |
| MTA1 (UniProt Q13330) | inactive: -0.05 | inactive: 0.108 | inactive: -0.041 | inactive: -0.064 | inactive: -0.085 | inactive: -0.013 | inactive: -0.017 | inactive: 0.057 | inactive: 0.062 | inactive: 0.014 | inactive: -0.025 | inactive: -0.06 | inactive: -0.082 | inactive: -0.026 | inactive: 0.041 | inactive: 0.027 | inactive: -0.037 | inactive: 0.046 | inactive: 0.048 | inactive: -0.036 |
| MXRA7 (UniProt P84157) | inactive: -0.074 | inactive: -0.075 | inactive: -0.02 | inactive: -0.057 | inactive: 0.042 | inactive: 0.057 | inactive: 0.03 | inactive: -0.042 | inactive: 0.018 | inactive: 0.002 | inactive: -0.097 | inactive: 0.037 | inactive: 0.037 | active: -0.302 | inactive: 0.008 | inactive: 0.003 | inactive: -0.006 | inactive: 0.028 | inactive: -0.013 | inactive: 0.061 |
| MTPN (UniProt P58546) | inactive: -0.02 | inactive: 0.035 | inactive: 0.032 | inactive: -0.053 | inactive: 0.009 | inactive: -0.032 | inactive: 0.124 | inactive: 0.349 | inactive: -0.105 | inactive: 0.031 | inactive: -0.005 | inactive: -0.004 | inactive: -0.014 | inactive: -0.03 | inactive: 0.129 | inactive: -0.12 | inactive: -0.097 | inactive: -0.016 | inactive: -0.148 | inactive: 0.057 |
| MYL4 (UniProt P12829) | inactive: -0.026 | inactive: -0.027 | inactive: 0.024 | inactive: 0.01 | inactive: 0.086 | inactive: -0.005 | inactive: 0.023 | inactive: -0.008 | inactive: 0.037 | inactive: 0.024 | inactive: 0.041 | inactive: 0.033 | inactive: 0.033 | inactive: 0.008 | inactive: 0.04 | inactive: -0.028 | inactive: -0.001 | inactive: -0.006 | inactive: -0.034 | inactive: -0.045 |
| MRPS36 (UniProt P82909) | inactive: -0.036 | inactive: 0.006 | inactive: 0.036 | inactive: 0.038 | inactive: 0 | inactive: -0.02 | inactive: -0.021 | inactive: -0.1 | inactive: 0.095 | inactive: -0.068 | inactive: -0.041 | inactive: -0.03 | inactive: 0.095 | inactive: -0.035 | inactive: -0.024 | inactive: -0.034 | inactive: -0.077 | inactive: -0.115 | inactive: -0.033 | inactive: 0.059 |
| MRPS27 isoform 2 (UniProt Q92552) | inactive: 0.181 | inactive: 0.099 | inactive: -0.083 | inactive: 0.021 | inactive: -0.104 | inactive: -0.049 | inactive: 0.022 | inactive: 0.033 | inactive: -0.112 | inactive: 0.119 | inactive: 0.067 | inactive: -0.015 | inactive: -0.105 | inactive: -0.007 | inactive: 0.011 | inactive: 0.104 | inactive: 0.08 | inactive: -0.04 | inactive: 0.049 | inactive: -0.012 |
| MSH2 (UniProt P43246) | inactive: 0 | inactive: 0.04 | inactive: -0.003 | inactive: -0.103 | inactive: -0.038 | inactive: 0.034 | inactive: 0.024 | inactive: 0.035 | inactive: -0.063 | inactive: 0.156 | inactive: -0.069 | inactive: -0.06 | inactive: -0.109 | inactive: -0.138 | inactive: 0.074 | inactive: 0.032 | inactive: 0.089 | inactive: 0.037 | inactive: -0.091 | inactive: -0.003 |
| MTHFD1 (UniProt P11586) | inactive: 0.077 | inactive: 0.096 | active: 0.214 | inactive: -0.051 | inactive: -0.135 | inactive: 0.019 | inactive: 0.069 | inactive: 0.021 | inactive: -0.088 | inactive: 0.122 | inactive: -0.028 | inactive: -0.011 | inactive: 0.094 | inactive: -0.028 | inactive: 0.024 | inactive: 0.05 | inactive: 0.051 | inactive: -0.039 | inactive: -0.042 | inactive: -0.021 |
| MRPS17 (UniProt Q9Y2R5) | inactive: 0.264 | inactive: -0.01 | inactive: -0.314 | inactive: 0.067 | inactive: -0.122 | inactive: -0.012 | inactive: -0.052 | inactive: 0.035 | inactive: -0.088 | inactive: 0.179 | inactive: -0.035 | inactive: 0.091 | inactive: -0.138 | inactive: -0.018 | inactive: -0.027 | inactive: 0.191 | inactive: 0.05 | inactive: -0.051 | inactive: -0.047 | inactive: 0.02 |
| MRPS28 (UniProt Q9Y2Q9) | inactive: 0.201 | inactive: 0.177 | inactive: -0.114 | inactive: 0.114 | inactive: -0.016 | inactive: -0.077 | inactive: -0.085 | inactive: 0.066 | inactive: 0 | inactive: 0.073 | inactive: 0.071 | inactive: 0.04 | inactive: -0.011 | inactive: 0.132 | inactive: 0.008 | inactive: 0.161 | inactive: 0.005 | inactive: -0.074 | inactive: -0.083 | inactive: 0.047 |
| MYO18A (UniProt Q92614) | inactive: 0.031 | inactive: -0.026 | inactive: -0.014 | inactive: -0.119 | inactive: 0.01 | inactive: -0.057 | inactive: -0.049 | inactive: -0.045 | inactive: -0.01 | inactive: -0.076 | inactive: -0.05 | inactive: -0.042 | inactive: 0.114 | inactive: 0.015 | inactive: -0.06 | inactive: 0.02 | inactive: -0.206 | inactive: 0.002 | inactive: 0.015 | inactive: 0.016 |
| MT-ND5 (UniProt P03915) | inactive: -0.014 | inactive: -0.094 | inactive: 0.008 | inactive: 0.005 | inactive: 0.086 | inactive: -0.051 | inactive: -0.017 | inactive: 0.031 | inactive: -0.046 | inactive: -0.062 | inactive: -0.068 | inactive: 0.012 | inactive: 0.038 | inactive: -0.003 | inactive: -0.056 | inactive: 0.075 | inactive: 0.053 | inactive: 0.058 | inactive: 0.015 | inactive: -0.066 |
| MRTFB isoform 5 (UniProt Q9ULH7) | inactive: -0.032 | inactive: 0.025 | inactive: 0.029 | inactive: 0.021 | inactive: 0.087 | inactive: -0.004 | inactive: 0.088 | inactive: -0.004 | inactive: -0.007 | inactive: 0.063 | inactive: 0.042 | inactive: -0.063 | inactive: -0.004 | inactive: -0.018 | inactive: -0.011 | inactive: -0.019 | inactive: 0.013 | inactive: -0.064 | inactive: -0.006 | inactive: 0.004 |
| MSH6 (UniProt P52701) | inactive: -0.019 | inactive: 0.101 | inactive: -0.116 | inactive: -0.179 | inactive: -0.325 | inactive: -0.1 | inactive: 0.139 | inactive: 0.167 | inactive: -0.174 | inactive: 0 | inactive: -0.033 | inactive: -0.091 | inactive: -0.213 | inactive: -0.191 | inactive: 0.229 | inactive: 0.273 | inactive: 0.347 | inactive: 0.14 | inactive: -0.169 | inactive: 0.097 |
| MRPS11 (UniProt P82912) | inactive: 0.266 | inactive: -0.033 | inactive: -0.188 | inactive: 0.179 | inactive: -0.16 | inactive: 0.11 | inactive: 0.02 | inactive: 0.14 | inactive: -0.015 | inactive: 0.164 | inactive: -0.075 | inactive: 0.028 | inactive: -0.118 | inactive: 0.209 | inactive: -0.055 | inactive: -0.008 | inactive: 0.02 | inactive: -0.037 | inactive: -0.047 | inactive: -0.021 |
| MYH9 (UniProt P35579) | inactive: -0.011 | inactive: 0.1 | inactive: -0.002 | inactive: -0.001 | inactive: -0.05 | inactive: -0.002 | inactive: 0.059 | inactive: -0.004 | inactive: -0.043 | inactive: 0.036 | inactive: 0.031 | inactive: 0.047 | inactive: -0.069 | inactive: 0.034 | inactive: -0.002 | inactive: 0.065 | inactive: 0.034 | inactive: -0.023 | inactive: -0.008 | inactive: 0.007 |

Taken from above (2 entries):

| Target | log2 fold change (bafetinib) | log2 fold change [1] | log2 fold change (nilotinib) | log2 fold change [2] | log2 fold change (dasatinib) | log2 fold change [3] | log2 fold change [4] | log2 fold change [5] | log2 fold change (tipifarnib) | log2 fold change (mubritinib) | log2 fold change [6] | log2 fold change [7] | log2 fold change [8] | log2 fold change [9] | log2 fold change (entinostat) | log2 fold change (vorinostat) | log2 fold change (citarinostat) | log2 fold change (silmitasertib) | log2 fold change [10] | log2 fold change [11] |
| --- | --- | --- | --- | --- | --- | --- | --- | --- | --- | --- | --- | --- | --- | --- | --- | --- | --- | --- | --- | --- |
| MYL4 (UniProt P12829) | inactive: -0.026 | inactive: -0.027 | inactive: 0.024 | inactive: 0.01 | inactive: 0.086 | inactive: -0.005 | inactive: 0.023 | inactive: -0.008 | inactive: 0.037 | inactive: 0.024 | inactive: 0.041 | inactive: 0.033 | inactive: 0.033 | inactive: 0.008 | inactive: 0.04 | inactive: -0.028 | inactive: -0.001 | inactive: -0.006 | inactive: -0.034 | inactive: -0.045 |
| MRPS36 (UniProt P82909) | inactive: -0.036 | inactive: 0.006 | inactive: 0.036 | inactive: 0.038 | inactive: 0 | inactive: -0.02 | inactive: -0.021 | inactive: -0.1 | inactive: 0.095 | inactive: -0.068 | inactive: -0.041 | inactive: -0.03 | inactive: 0.095 | inactive: -0.035 | inactive: -0.024 | inactive: -0.034 | inactive: -0.077 | inactive: -0.115 | inactive: -0.033 | inactive: 0.059 |
